The text below walks through data of publication PMC11662665.

Protein sequences, listed by entry. Tags and fused reporters are not part of them. Lines headed by an entry give the natural chain unless they say otherwise; changes in a name come on top.
UniProt P56546: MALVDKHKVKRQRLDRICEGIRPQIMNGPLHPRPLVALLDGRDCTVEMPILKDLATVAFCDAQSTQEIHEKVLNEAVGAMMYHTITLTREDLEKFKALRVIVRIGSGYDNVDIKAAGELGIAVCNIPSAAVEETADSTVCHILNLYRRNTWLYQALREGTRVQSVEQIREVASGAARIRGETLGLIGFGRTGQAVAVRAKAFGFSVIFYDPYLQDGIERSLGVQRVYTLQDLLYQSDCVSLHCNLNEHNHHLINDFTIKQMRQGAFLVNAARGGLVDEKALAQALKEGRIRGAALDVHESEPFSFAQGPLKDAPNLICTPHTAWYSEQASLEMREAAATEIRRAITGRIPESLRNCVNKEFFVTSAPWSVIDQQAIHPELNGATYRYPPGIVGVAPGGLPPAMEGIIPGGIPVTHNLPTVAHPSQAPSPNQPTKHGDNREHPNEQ

Assay [1] concerns the target S164E Ctbp2, knock-in (KI) mouse ESCs (mouse (endogenous in E14 mESCs)) (UniProt P56546). As to the kind of experiment: co-IP; anti-Ctbp2 antibodies; endogenous proteins in lysates of wild-type or S164E KI mESCs, with or without 500 nM ADR for 4 h (also shScr control cells); 25 mM Tris-Cl pH 7.5, 0.1% NP-40, 150 mM NaCl, 10% glycerol, 4 C overnight.
Assay [2] concerns the target Ctbp2, endogenous in wild-type mouse ESCs (E14) (mouse (endogenous in E14 mESCs)) (UniProt P56546). The assay is described as above.

No constants are given. Whether binding was seen depends on the method and setting. In cells and extracts the contact can be indirect. Some entries that bind do so weakly or less than the wild type.

B1: Hic2 (protein, UniProt Q9JLZ6 1-619)
chain: MVSGPLALRWCPWAGHRDMGPDMELPSHSKQLLLQLNQQRAKGFLCDVIIMVENSIFRAHKNVLAASSIYFKSLVLHDNLINLDTDMVSSTVFQQILDFIYTGKLLPSDQPSEPNFSTLLTAASYLQLPELAALCRRKLKRAGKPFGPGRVGTAGIGRPTRSQRLSTASVIQARFPGLVDVRKGHPAPQELPQAKGSDDELFLGTSTQESTHGLGLGGPAGGEMGLGGCSTSTNGSSGGCEQELGLDLSKKSPPLPPTTPGPHLTPEDPAQLSDSQRESPAPTSTSALPVGNSASFVELGATPEEPMDVEGAEENHLSLLEGQGGQPRKSLRHSARKKDWNKKEPVAGSPFDRRETGSKGSCPGEEGEGTGDRVPNGVLASSAGGGGPSASYGEQSFPCKEEEENGKDGSEDSGQSGSEGGSGHTGAHYVYRQEGYETVSYGDNVYVCIPCAKGFPSSEQLNAHVETHTEEELFIKEEGAYETGSGGAEEEAEDLSTPSAAYTADSRPFKCSVCEKTYKDPATLRQHEKTHWLTRPFPCNICGKMFTQRGTMTRHMRSHLGLKPFACDECGMRFTRQYRLTEHMRVHSGEKPYECQLCGGKFTQQRNLISHLRMHTSPS
As to B1, the binding result in assay [1] and in assay [2] was “binds” each time.
